From paper PMC7545198

Experiments:
HA-Foxd4l1.1 (Xenopus) = assay: co-IP; lysates of stage 11.5 Xenopus embryos co-injected with HA-foxd4l1.1 (or truncations) and Myc-xbra mRNA; immunoprecipitation with anti-HA polyclonal antibody, western blot with anti-Myc
Flag-Smad1 = assay: co-IP; lysates of stage 11.5 Xenopus embryos co-injected with Flag-smad1 and Myc-xbra mRNA, with or without HA-foxd4l1.1 or EnRfoxd4l1.1; immunoprecipitation with anti-Flag monoclonal antibody, western blot with anti-Myc

B1: Myc-Xbra (protein, UniProt P24781 1-432)
chain: MSATESCAKNVQYRVDHLLSAVENELQAGSEKGDPTEKELKVSLEERDLWTRFKELTNEMIVTKNGRRMFPVLKVSMSGLDPNAMYTVLLDFVAADNHRWKYVNGEWVPGGKPEPQAPSCVYIHPDSPNFGAHWMKDPVSFSKVKLTNKMNGGGQIMLNSLHKYEPRIHIVRVGGTQRMITSHSFPETQFIAVTAYQNEEITALKIKHNPFAKAFLDAKERNDYKDILDEGIDSQHSNFSQLGTWLIPNGGSLCSPNPHTQFGAPLSLSSPHGCERYSSLRNHRSAPYPSPYTHRNNSPNNLADNSSACLSMLQSHDNWSTLQMPAHTGMLPMSHSTGTPPPSSQYPSLWSVSNSAITPVSQSGGITNGISSQYLLGSTPHYSSLSHAVPSPSTGSPLYEHGAQTEIAENQYDVTAHSRLSSTWTPVAPPSV
binding (HA-Foxd4l1.1 (Xenopus)): binds | binding (Flag-Smad1): binds

These are yes or no findings as the source states them, for the method shown. Binding seen in cells or lysates may run through a third protein. A result given as binding can be weak or reduced; the word gives no strength. Tags and fused reporters may be left off the sequences shown.
